PubChem BioAssay AID686943, Drosophila RNAi Screening Center | 2013

Assay: 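Knockdowns that increase or decrease active ERK after insulin receptor stimulation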 (primary screen)
Cell system: Drosophila S2R+ haemocyte-like cells expressing YFP-tagged ERK (Rolled)
Reagent: long dsRNA against Drosophila genes
Treatment: insulin stimulation versus unstimulated cells; dose and duration not given
Measurement: 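Per-plate z-scores of phospho-ERK immunostaining normalised to YFP-tagged ERK, measured with and without insulin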
Reading the numbers: replicate 1, z-score of dpERK with insulin and replicate 2, z-score of dpERK with insulin: higher = more active ERK per ERK-YFP after insulin
The screen tested about 23,000 reagents; below is a random part of those with a known target gene and a result. 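Extra replicates exist only for a retested subset of genes; insulin dose and duration not given; both raised and lowered dpERK matter.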 Reagents against one gene are numbered here. Further read-outs or replicates are left out here. Not given: the amount of reagent, the time to read-out.

Depletion of Nemp came out at: replicate 1, z-score of dpERK with insulin 0.21; replicate 2, z-score of dpERK with insulin -0.65.
For roq, the entry reads replicate 1, z-score of dpERK with insulin 0.02; replicate 2, z-score of dpERK with insulin -0.21.
For CG10418, the entry reads replicate 1, z-score of dpERK with insulin 1.3; replicate 2, z-score of dpERK with insulin -0.26.
For CG7483 #1, the entry reads replicate 1, z-score of dpERK with insulin 0.4; replicate 2, z-score of dpERK with insulin -0.01.
After knock-down of CG7483 #2, the screen gave replicate 1, z-score of dpERK with insulin -0.32; replicate 2, z-score of dpERK with insulin -0.2.
Knock-down of Cip4 #1 resulted in: replicate 1, z-score of dpERK with insulin 0.58; replicate 2, z-score of dpERK with insulin -0.32.
Knock-down of Cip4 #2 gave: replicate 1, z-score of dpERK with insulin -0.17; replicate 2, z-score of dpERK with insulin 0.57.
With knock-down of Cip4 #3, the screen gave replicate 1, z-score of dpERK with insulin -3.88; replicate 2, z-score of dpERK with insulin 0.57.
Against rhea, the values are replicate 1, z-score of dpERK with insulin -0.02; replicate 2, z-score of dpERK with insulin 0.84.
Depletion of CG10053 came out at: replicate 1, z-score of dpERK with insulin 0.78; replicate 2, z-score of dpERK with insulin 0.38.
With knock-down of rump, the record shows replicate 1, z-score of dpERK with insulin -0.72; replicate 2, z-score of dpERK with insulin -0.16.
Depletion of bdl resulted in: replicate 1, z-score of dpERK with insulin -0.04; replicate 2, z-score of dpERK with insulin 0.54.
After knock-down of CG4646 the results were replicate 1, z-score of dpERK with insulin -0.48; replicate 2, z-score of dpERK with insulin -0.83.
Depletion of vkg came out at: replicate 1, z-score of dpERK with insulin 0.61; replicate 2, z-score of dpERK with insulin 1.52.
With knock-down of lawc, the record shows replicate 1, z-score of dpERK with insulin -0.22; replicate 2, z-score of dpERK with insulin -0.14.
After knock-down of CG12121, the screen gave replicate 1, z-score of dpERK with insulin 0.72; replicate 2, z-score of dpERK with insulin 0.84.
After knock-down of dnk, the record shows replicate 1, z-score of dpERK with insulin -0.76; replicate 2, z-score of dpERK with insulin -0.81.
After knock-down of CG14762 #1, the screen gave replicate 1, z-score of dpERK with insulin 0; replicate 2, z-score of dpERK with insulin 0.87.
With knock-down of CG14762 #2, the screen gave replicate 1, z-score of dpERK with insulin 0.76; replicate 2, z-score of dpERK with insulin -0.3.
With knock-down of CG8611, the screen gave replicate 1, z-score of dpERK with insulin -0.3; replicate 2, z-score of dpERK with insulin 0.34.
Against Sur-8, the values are replicate 1, z-score of dpERK with insulin -3.31; replicate 2, z-score of dpERK with insulin 0.04.
Silencing of CG13449 came out at: replicate 1, z-score of dpERK with insulin 0.27; replicate 2, z-score of dpERK with insulin 0.8.
Knock-down of t-Grip128 resulted in: replicate 1, z-score of dpERK with insulin 0.09; replicate 2, z-score of dpERK with insulin 0.83.
CG8507 showed replicate 1, z-score of dpERK with insulin -0.08; replicate 2, z-score of dpERK with insulin 0.51.
For Myo28B1, the values are replicate 1, z-score of dpERK with insulin -0.49; replicate 2, z-score of dpERK with insulin 0.06.
mia gave replicate 1, z-score of dpERK with insulin -0.64; replicate 2, z-score of dpERK with insulin -0.23.
For chif, the values are replicate 1, z-score of dpERK with insulin 0.35; replicate 2, z-score of dpERK with insulin 0.94.
After knock-down of RpL30, the record shows replicate 1, z-score of dpERK with insulin -1.06; replicate 2, z-score of dpERK with insulin -1.63.
Against Spn88Ea, the entry reads replicate 1, z-score of dpERK with insulin 1.06; replicate 2, z-score of dpERK with insulin -1.01.
For CG5445, the values are replicate 1, z-score of dpERK with insulin -0.64; replicate 2, z-score of dpERK with insulin -0.62.
Knock-down of CG8157 #1 resulted in: replicate 1, z-score of dpERK with insulin -0.47; replicate 2, z-score of dpERK with insulin -1.05.
Depletion of CG8157 #2 resulted in: replicate 1, z-score of dpERK with insulin 0.84; replicate 2, z-score of dpERK with insulin -0.03.
For Agxt the deposit lists replicate 1, z-score of dpERK with insulin 0.46; replicate 2, z-score of dpERK with insulin -0.13.
COX1 (retired record) showed replicate 1, z-score of dpERK with insulin 0.51; replicate 2, z-score of dpERK with insulin -0.36.
With knock-down of CG9775 #1 the results were replicate 1, z-score of dpERK with insulin 0.84; replicate 2, z-score of dpERK with insulin 0.58.
Against CG9775 #2 the deposit lists replicate 1, z-score of dpERK with insulin 0.22; replicate 2, z-score of dpERK with insulin -1.25.
With knock-down of AnxB11, the screen gave replicate 1, z-score of dpERK with insulin 0.95; replicate 2, z-score of dpERK with insulin 0.34.
Depletion of CG12851 resulted in: replicate 1, z-score of dpERK with insulin -0.74; replicate 2, z-score of dpERK with insulin 1.04.
After knock-down of prd, the screen gave replicate 1, z-score of dpERK with insulin 0.14; replicate 2, z-score of dpERK with insulin 0.12.
CG5641 gave replicate 1, z-score of dpERK with insulin -0.54; replicate 2, z-score of dpERK with insulin -0.14.

Ordered by “replicate 2, z-score of dpERK with insulin” (descending): some entries from above
bdl → replicate 1, z-score of dpERK with insulin: -0.04; replicate 2, z-score of dpERK with insulin: 0.54
CG10053 → replicate 1, z-score of dpERK with insulin: 0.78; replicate 2, z-score of dpERK with insulin: 0.38
rump → replicate 1, z-score of dpERK with insulin: -0.72; replicate 2, z-score of dpERK with insulin: -0.16
